{"source": "PubChem BioAssay AID1224828 (NIAID, 2016)", "test": "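Find genes required for NF-kappaB p65 moving into the nucleus after LPS in mouse macrophages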 (primary screen)", "cell system": "mouse RAW264.7 G9 macrophage reporter cells (GFP-p65, Tnf promoter-mCherry)", "knock-down reagent": "siRNA pool against mouse genes, 100 nM", "time to read-out": "2 days siRNA transfection, then 40 min LPS before fixation", "conditions": "LPS (Salmonella minnesota R595) at 10 ng/ml", "measured": "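Imaged p65 nuclear translocation ratio, normalised to the plate median, converted to robust z-scores and averaged across two replicates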", "direction": "p65 translocation robust z-score: higher = more nuclear NF-kappaB p65 after LPS than the plate median; nuclear/cytoplasmic p65 ratio: higher = more nuclear NF-kappaB p65", "rule for the call": "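Called active when z exceeds 3.3 or falls under -1.56 (median of Tlr4 controls), giving activity score of at least 50; no calls for control wells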", "calls": "active = hit (p65 shift raised or lowered); inactive = no clear change", "note": "Shown is one part, drawn at random, of about 17,000 reagents. In the full data, 762 (4.5%) were called active. 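Active calls include both raised and lowered p65 entry, mostly lowered; wells with fewer than 50 cells lack a z-score.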 The raw values are shown without normalisation. Unmarked entries are inactive."}
{"gene": "Tmem144", "PubChem SID": "SID315474105", "p65 translocation robust z-score": 0.71, "nuclear/cytoplasmic p65 ratio, rep 1": 1.42, "nuclear/cytoplasmic p65 ratio, rep 2": 1.6, "low cell count flag": "enough cells to score"}
{"gene": "Ryr2", "PubChem SID": "SID315469073", "p65 translocation robust z-score": -0.33, "nuclear/cytoplasmic p65 ratio, rep 1": 1.47, "nuclear/cytoplasmic p65 ratio, rep 2": 1.48, "low cell count flag": "enough cells to score"}
{"gene": "Pofut2", "PubChem SID": "SID315475697", "p65 translocation robust z-score": 0.46, "nuclear/cytoplasmic p65 ratio, rep 1": 1.48, "nuclear/cytoplasmic p65 ratio, rep 2": 1.23, "low cell count flag": "enough cells to score"}
{"gene": "Foxj2", "PubChem SID": "SID315472036", "p65 translocation robust z-score": -0.23, "nuclear/cytoplasmic p65 ratio, rep 1": 1.39, "nuclear/cytoplasmic p65 ratio, rep 2": 1.35, "low cell count flag": "enough cells to score"}
{"gene": "Or5v1", "PubChem SID": "SID315480016", "p65 translocation robust z-score": 0.09, "nuclear/cytoplasmic p65 ratio, rep 1": 1.68, "nuclear/cytoplasmic p65 ratio, rep 2": 1.58, "low cell count flag": "enough cells to score"}
{"gene": "Usp9y", "PubChem SID": "SID315476650", "p65 translocation robust z-score": -0.37, "nuclear/cytoplasmic p65 ratio, rep 1": 1.46, "nuclear/cytoplasmic p65 ratio, rep 2": 1.43, "low cell count flag": "enough cells to score"}
{"gene": "Gpr101", "PubChem SID": "SID315479815", "p65 translocation robust z-score": -0.25, "nuclear/cytoplasmic p65 ratio, rep 1": 1.49, "nuclear/cytoplasmic p65 ratio, rep 2": 1.53, "low cell count flag": "enough cells to score"}
{"gene": "Ttc4", "PubChem SID": "SID315474527", "p65 translocation robust z-score": 0.7, "nuclear/cytoplasmic p65 ratio, rep 1": 1.55, "nuclear/cytoplasmic p65 ratio, rep 2": 1.65, "low cell count flag": "enough cells to score"}

Reprinted from the listing for reference:
{"gene": "Foxj2", "PubChem SID": "SID315472036", "p65 translocation robust z-score": -0.23, "nuclear/cytoplasmic p65 ratio, rep 1": 1.39, "nuclear/cytoplasmic p65 ratio, rep 2": 1.35, "low cell count flag": "enough cells to score"}
{"gene": "Or5v1", "PubChem SID": "SID315480016", "p65 translocation robust z-score": 0.09, "nuclear/cytoplasmic p65 ratio, rep 1": 1.68, "nuclear/cytoplasmic p65 ratio, rep 2": 1.58, "low cell count flag": "enough cells to score"}

More reagents:
{"gene": "Tlm", "PubChem SID": "SID315469741", "nuclear/cytoplasmic p65 ratio, rep 1": 1.41, "nuclear/cytoplasmic p65 ratio, rep 2": 1.3, "low cell count flag": "fewer than 50 cells per well; well left out of scoring"}
{"gene": "Tesk1", "PubChem SID": "SID315469666", "p65 translocation robust z-score": -0.72, "nuclear/cytoplasmic p65 ratio, rep 1": 1.52, "nuclear/cytoplasmic p65 ratio, rep 2": 1.34, "low cell count flag": "enough cells to score"}
{"gene": "Hes6", "PubChem SID": "SID315471304", "p65 translocation robust z-score": -0.73, "nuclear/cytoplasmic p65 ratio, rep 1": 1.3, "nuclear/cytoplasmic p65 ratio, rep 2": 1.32, "low cell count flag": "enough cells to score"}
{"gene": "Srebf1", "PubChem SID": "SID315469460", "p65 translocation robust z-score": -0.36, "nuclear/cytoplasmic p65 ratio, rep 1": 1.48, "nuclear/cytoplasmic p65 ratio, rep 2": 1.54, "low cell count flag": "enough cells to score"}
{"gene": "Wdr24", "PubChem SID": "SID315480814", "p65 translocation robust z-score": -0.34, "nuclear/cytoplasmic p65 ratio, rep 1": 1.43, "nuclear/cytoplasmic p65 ratio, rep 2": 1.9, "low cell count flag": "enough cells to score"}
{"gene": "Adamts12", "PubChem SID": "SID315479434", "p65 translocation robust z-score": -0.59, "nuclear/cytoplasmic p65 ratio, rep 1": 1.47, "nuclear/cytoplasmic p65 ratio, rep 2": 1.59, "low cell count flag": "enough cells to score"}
